# Measured values as given in the supplement of paper PMC6445147.
# Values scatter widely in this assay.
# B1: human tRNA-Pro; a variant is named by its letters at N, in order (parent)
# chain: GGCTCGTTGGTCTAGNGGTATGATTCTCGCTTAGGGTGCGAGAGGTCCCGGGTTCNNATCCCGGACGAGCCC
# Tests used:
# [1] = variants of: B1; test: tRNA Pol-III promoter activity, log2 (circRNA frequency / plasmid DNA frequency) (log2 ratio); higher = stronger promoter activity; conditions: HEK293T; construct: no Pol-II promoter ((-)CMV library)
# [2] = variants of: B1; test: tRNA 3' processing efficiency (processed reads / all reads, maximum-likelihood estimate) (fraction); higher = more efficient 3' processing; conditions: HEK293T; construct: no Pol-II promoter ((-)CMV library)
# [3] = variants of: B1; test: tRNA 5' processing efficiency (processed reads / all reads, maximum-likelihood estimate) (fraction); higher = more efficient 5' processing; conditions: HEK293T; construct: CMV Pol-II promoter ((+)CMV library, decapped)
Variant,tRNA Pol-III promoter activity (log2) [1],tRNA 3' processing efficiency [2],tRNA 5' processing efficiency [3]
GGCTCGTTGGTCTAGGGATATGATTCTCGCTTAGGGTGCGAGAGGTCCCGGGTTCAATTCCCGGACGAGCCC [GAA G18A A58T],-1.18,0.4,–
GGCTCGTTGGTCTCCGGCTTTGATTCTCGCTTAGGGTGCGAGAGGTCCCGGGTTCGGATCCCGGACGAGCCC [GGG A14C G15C G18C A20T],5.53,0.17,–
GGCTCGTTGGTCTCGGGGTATGATTCTCGCTTAGGGTGCGAGAGGTCCCGGGCTCAAGTCCCGGACGAGCCC [GAA A14C T53C A58G],5.03,0.17,–
GGCTCGTTGGTCTAGGGGTGTGATTCTCGCTTAGGGTGCGAGAGGTCCCGGGTTCGACTCCCGGACGAGCCC [GGA A20G A58C],4.94,0.5,–
GGCTCGTCGGTCTAGGGGTATGATTCTCGCTTAGGGTGCGAGAGGTCCCGGGTTCAGGTCCCGGACGAGCCC [GAG T8C A58G],1.76,0.25,–
GGCTCGTTGGTCTAGTGGTATGATTCTCGCTTAGGGTGCGAGAGGTCCCGGGTACGAGTCCCGGACGAGCCC [TGA T54A A58G],5.45,0.31,–
GGCTCGTTGGTCTTGGGGTATGATTCTCGCTTAGGGTGCGAGAGGTCCCGGGTTCGAACCCCGGACGAGCCC [GGA A14T T59C],4.49,0.23,–
GGCTCGTTGGTCTAGGGGAATGATTCTCGCTTAGGGTGCGAGAGGTCCCGGGCTCGAATCCCGGACGAGCCC [GGA T19A T53C],8.28,0.26,–
GGCTCGTTGGTCTAGGGGTATGATTCTCGCTTAGGGTGCGAGAGGTCCCGGGTTTAAATCCCGGACGAGCCC [GAA C55T],-0.847,0.44,0.25
GGCTCGTTGGTCTTGAGGTCTGATTCTCGCTTAGGGTGCGAGAGGTCCCGGGTTCAAGTCCCGGACGAGCCC [AAA A14T A20C A58G],5.94,0.25,–
GGCTCGTTGGTCTCGGGGTTTGATTCTCGCTTAGGGTGCGAGAGGTCCCGGGTTCAAACCCCGGACGAGCCC [GAA A14C A20T T59C],5.52,0.36,–
GGCTCGTTAGTCTAGTGGTATGATTCTCGCTTAGGGTGCGAGAGGTCCCGGGTTCAAATCCCGGACGAGCCC [TAA G9A],-0.727,0.4,0.33
GGCTCGTTGGTCTAGTGGTATGATTCTCGCTTAGGGTGCGAGAGGTCCCGGGTTCAATACCCGGACGAGCCC [TAA A58T T59A],3.68,0.4,–
GGCTCGTAGGTCTAGGGGTATGATTCTCGCTTAGGGTGCGAGAGGTCCCGGGTTAAGATCCCGGACGAGCCC [GAG T8A C55A],3.36,0.5,–
GGCTCGTTGGTCTAGGGGTATGATTCTCGCTTAGGGTGCGAGAGGTCCCGGGTACAAAACCCGGACGAGCCC [GAA T54A T59A],0.891,0.33,–
GGCTCGTTGGTCTGGTGGTATGATTCTCGCTTAGGGTGCGAGAGGTCCCGGGTTCAAATCCCGGACGAGCCC [TAA A14G],-0.314,0.53,–
GGCTCGTTGGTCTAGGGTTATGATTCTCGCTTAGGGTGCGAGAGGTCCCGGGTTCAAGACCCGGACGAGCCC [GAA G18T A58G T59A],3.3,0.33,–
GGCTCGTTGGTCTAGGGGGATGATTCTCGCTTAGGGTGCGAGAGGTCCCGGGTTCTATTCCCGGACGAGCCC [GTA T19G A58T],3.38,0.23,–

# Record cards, as listed above. Values in the order: tRNA Pol-III promoter activity (log2) [1] | tRNA 3' processing efficiency [2] | tRNA 5' processing efficiency [3]
# GGCTCGTTGGTCTCCGGCTTTGATTCTCGCTTAGGGTGCGAGAGGTCCCGGGTTCGGATCCCGGACGAGCCC [GGG A14C G15C G18C A20T] is entered as 5.53 | 0.17 | –
# GGCTCGTTGGTCTAGGGTTATGATTCTCGCTTAGGGTGCGAGAGGTCCCGGGTTCAAGACCCGGACGAGCCC [GAA G18T A58G T59A] is entered as 3.3 | 0.33 | –
